# Data published in article PMC1904229.
# No constants are given. Whether binding was seen depends on the method and setting. Some results given as binding are weak or reduced against the parent protein; the word gives no strength.
# T1: Murine full-length WOX1, bait in pSos (murine) (UniProt Q91WL8)
# T1 sequence: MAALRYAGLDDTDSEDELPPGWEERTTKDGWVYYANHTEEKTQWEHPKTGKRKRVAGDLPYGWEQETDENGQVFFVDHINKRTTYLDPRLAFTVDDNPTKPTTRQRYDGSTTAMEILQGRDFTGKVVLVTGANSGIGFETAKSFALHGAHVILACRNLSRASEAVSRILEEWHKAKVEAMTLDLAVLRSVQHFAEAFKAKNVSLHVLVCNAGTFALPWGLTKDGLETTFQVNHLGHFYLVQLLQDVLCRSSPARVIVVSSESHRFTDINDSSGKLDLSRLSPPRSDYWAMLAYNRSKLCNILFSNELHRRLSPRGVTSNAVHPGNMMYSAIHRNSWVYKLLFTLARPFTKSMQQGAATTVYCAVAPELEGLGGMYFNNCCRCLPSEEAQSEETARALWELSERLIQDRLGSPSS
# B1: Full-length TRADD (tumor necrosis factor receptor type 1-associated death domain protein), two-hybrid construct (protein, UniProt Q15628 1-312)
# chain: MAAGQNGHEEWVGSAYLFVESSLDKVVLSDAYAHPQQKVAVYRALQAALAESGGSPDVLQMLKIHRSDPQLIVQLRFCGRQPCGRFLRAYREGALRAALQRSLAAALAQHSVPLQLELRAGAERLDALLADEERCLSCILAQQPDRLRDEELAELEDALRNLKCGSGARGGDGEVASAPLQPPVPSLSEVKPPPPPPPAQTFLFQGQPVVNRPLSLKDQQTFARSVGLKWRKVGRSLQRGCRALRDPALDSLAYEYEREGLYEQAFQLLRRFVQAEGRRATLQRLVEALEENELTSLAEDLLGLTDPNGGLA
# Molecular target: T1, Murine full-length WOX1, bait in pSos (murine)
# Experiment: two-hybrid; Ras rescue-based cytoplasmic yeast two-hybrid (CytoTrap, Stratagene); Sos-tagged bait (pSos) and myristoylation-signal-tagged, membrane-anchored target (pMyr); growth of mutant yeast cdc25H at 37°C on a selective plate containing galactose
binder,measurement,value
B1,binding,binds
